# Assay results published in paper PMC12756081.
# Results are given in words; binding and its absence hold for the method and conditions named. Some entries that bind do so weakly or less than the wild type. Tags and fused reporters may be left off the sequences shown.
# T1: mIL-18Rα subunit fused to an Fc domain (mouse) (UniProt Q61098)
# T1 sequence: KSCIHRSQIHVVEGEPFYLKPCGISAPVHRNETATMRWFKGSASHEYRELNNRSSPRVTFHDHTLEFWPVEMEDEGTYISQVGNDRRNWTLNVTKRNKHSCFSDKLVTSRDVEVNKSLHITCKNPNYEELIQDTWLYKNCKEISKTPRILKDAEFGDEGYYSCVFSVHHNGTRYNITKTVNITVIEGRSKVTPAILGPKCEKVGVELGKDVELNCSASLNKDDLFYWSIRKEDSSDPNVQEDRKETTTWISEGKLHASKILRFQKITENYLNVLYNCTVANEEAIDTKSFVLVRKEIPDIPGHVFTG
# Molecular target: T1, mIL-18Rα subunit fused to an Fc domain (mouse)
# Test: BLI; Octet RED96, 25 °C, 1000 rpm; mIL-18Rα fused to Fc immobilised, RMP-IL-18mutE4 or mIL-18 as analyte in kinetics buffer; both purified
binder,measurement,value
"wild type mIL-18 (ligand, UniProt P70380 36-192) NFGRLHCTTAVIRNINDQVLFVDKRQPVFEDMTDIDQSASEPQTRLIIYMYKDSEVRGLAVTLSVKDSKMSTLSCKNKIISFEEMDPPENIDDIQSDLIFFQKRVPGHNKMEFESSLYEGHFLACQKEDDAFKLILKKKDENGDKSVMFTLTNLHQS",binding,binds
